Test results: the supplement of paper PMC12819154, “High-throughput peptide-centric local stability assay extends protein–ligand identification to membrane proteins, tissues and bacteria” (Nature Structural & Molecular Biology, 2025)
Some of the results follow. Small differences around the control level are noise.

Protein sequences, listed by entry. Tags and fused reporters are not part of them. Lines headed by an entry give the natural chain unless they say otherwise; changes in a name come on top.
UniProt Q8K3W3, whole entry: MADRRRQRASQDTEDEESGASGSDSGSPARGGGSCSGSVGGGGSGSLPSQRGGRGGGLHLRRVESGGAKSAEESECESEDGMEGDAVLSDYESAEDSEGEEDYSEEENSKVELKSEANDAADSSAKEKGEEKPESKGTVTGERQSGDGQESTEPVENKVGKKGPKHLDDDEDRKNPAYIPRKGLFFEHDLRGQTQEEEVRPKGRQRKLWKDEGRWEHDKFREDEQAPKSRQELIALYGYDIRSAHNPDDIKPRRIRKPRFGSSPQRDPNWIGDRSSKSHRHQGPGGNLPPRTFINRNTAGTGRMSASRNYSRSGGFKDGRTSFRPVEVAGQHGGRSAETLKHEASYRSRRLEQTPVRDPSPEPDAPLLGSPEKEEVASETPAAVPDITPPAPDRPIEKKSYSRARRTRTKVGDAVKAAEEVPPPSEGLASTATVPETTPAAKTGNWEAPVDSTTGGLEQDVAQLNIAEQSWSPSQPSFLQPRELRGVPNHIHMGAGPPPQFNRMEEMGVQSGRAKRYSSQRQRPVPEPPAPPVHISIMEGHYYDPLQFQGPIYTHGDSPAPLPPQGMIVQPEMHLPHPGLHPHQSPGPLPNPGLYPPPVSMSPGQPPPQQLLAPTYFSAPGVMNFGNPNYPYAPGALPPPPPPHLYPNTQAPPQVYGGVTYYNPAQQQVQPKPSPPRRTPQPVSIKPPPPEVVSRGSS
UniProt Q8K5B2: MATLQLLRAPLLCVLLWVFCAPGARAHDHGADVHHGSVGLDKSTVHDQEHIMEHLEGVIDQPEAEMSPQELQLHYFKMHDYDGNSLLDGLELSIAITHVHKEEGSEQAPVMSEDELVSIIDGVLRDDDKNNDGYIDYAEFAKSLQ
UniProt Q8R2E9: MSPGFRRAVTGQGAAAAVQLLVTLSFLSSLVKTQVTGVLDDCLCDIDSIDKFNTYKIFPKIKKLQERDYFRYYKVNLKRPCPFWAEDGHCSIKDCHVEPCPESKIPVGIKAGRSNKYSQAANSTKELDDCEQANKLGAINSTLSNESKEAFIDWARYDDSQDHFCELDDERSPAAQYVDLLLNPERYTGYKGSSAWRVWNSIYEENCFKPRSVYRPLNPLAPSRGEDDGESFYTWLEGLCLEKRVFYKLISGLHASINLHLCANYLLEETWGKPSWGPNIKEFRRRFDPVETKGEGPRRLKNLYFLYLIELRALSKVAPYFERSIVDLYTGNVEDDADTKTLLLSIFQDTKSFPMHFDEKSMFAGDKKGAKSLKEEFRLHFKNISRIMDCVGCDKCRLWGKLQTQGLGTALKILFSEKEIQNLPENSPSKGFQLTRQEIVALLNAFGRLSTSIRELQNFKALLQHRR
UniProt Q8K1H1: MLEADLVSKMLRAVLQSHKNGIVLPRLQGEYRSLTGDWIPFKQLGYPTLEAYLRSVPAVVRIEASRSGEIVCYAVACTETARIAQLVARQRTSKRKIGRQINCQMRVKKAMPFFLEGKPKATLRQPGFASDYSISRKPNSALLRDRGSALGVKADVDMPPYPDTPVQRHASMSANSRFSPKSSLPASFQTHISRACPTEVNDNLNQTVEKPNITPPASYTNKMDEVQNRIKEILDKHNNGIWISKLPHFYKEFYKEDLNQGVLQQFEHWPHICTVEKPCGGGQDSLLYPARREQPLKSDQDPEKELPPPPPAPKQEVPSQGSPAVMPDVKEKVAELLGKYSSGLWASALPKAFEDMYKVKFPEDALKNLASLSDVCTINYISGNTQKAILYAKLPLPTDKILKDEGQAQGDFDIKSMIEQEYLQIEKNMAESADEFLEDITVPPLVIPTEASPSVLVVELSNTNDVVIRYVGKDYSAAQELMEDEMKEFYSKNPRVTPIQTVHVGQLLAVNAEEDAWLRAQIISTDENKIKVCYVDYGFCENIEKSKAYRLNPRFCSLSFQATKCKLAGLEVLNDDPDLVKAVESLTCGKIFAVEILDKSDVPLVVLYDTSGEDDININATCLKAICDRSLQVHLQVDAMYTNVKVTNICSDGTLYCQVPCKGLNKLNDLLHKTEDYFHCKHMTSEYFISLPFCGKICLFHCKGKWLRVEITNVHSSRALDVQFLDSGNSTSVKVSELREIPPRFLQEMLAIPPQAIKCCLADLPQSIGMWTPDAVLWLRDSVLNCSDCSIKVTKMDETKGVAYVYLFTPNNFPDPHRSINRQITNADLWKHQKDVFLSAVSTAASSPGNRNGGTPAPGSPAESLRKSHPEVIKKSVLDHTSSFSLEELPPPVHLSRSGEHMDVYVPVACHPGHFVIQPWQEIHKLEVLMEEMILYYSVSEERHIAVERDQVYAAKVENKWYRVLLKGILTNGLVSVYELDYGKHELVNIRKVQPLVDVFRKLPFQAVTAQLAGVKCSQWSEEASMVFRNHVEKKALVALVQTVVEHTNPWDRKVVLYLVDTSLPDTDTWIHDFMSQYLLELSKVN
UniProt Q8CI59: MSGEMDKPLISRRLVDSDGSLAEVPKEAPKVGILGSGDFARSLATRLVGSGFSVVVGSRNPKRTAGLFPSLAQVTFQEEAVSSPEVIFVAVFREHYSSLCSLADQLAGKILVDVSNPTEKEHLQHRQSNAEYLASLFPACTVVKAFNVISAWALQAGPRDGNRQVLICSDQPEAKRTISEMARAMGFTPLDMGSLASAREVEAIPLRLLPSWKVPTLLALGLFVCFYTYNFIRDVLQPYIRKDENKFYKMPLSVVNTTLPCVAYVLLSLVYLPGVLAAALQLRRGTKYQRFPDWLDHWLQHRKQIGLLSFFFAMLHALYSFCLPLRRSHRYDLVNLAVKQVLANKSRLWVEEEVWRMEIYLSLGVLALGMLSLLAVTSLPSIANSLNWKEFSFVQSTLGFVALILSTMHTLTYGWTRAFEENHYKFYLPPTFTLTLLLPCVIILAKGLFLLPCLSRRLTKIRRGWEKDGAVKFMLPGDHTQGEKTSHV
UniProt Q8CH25: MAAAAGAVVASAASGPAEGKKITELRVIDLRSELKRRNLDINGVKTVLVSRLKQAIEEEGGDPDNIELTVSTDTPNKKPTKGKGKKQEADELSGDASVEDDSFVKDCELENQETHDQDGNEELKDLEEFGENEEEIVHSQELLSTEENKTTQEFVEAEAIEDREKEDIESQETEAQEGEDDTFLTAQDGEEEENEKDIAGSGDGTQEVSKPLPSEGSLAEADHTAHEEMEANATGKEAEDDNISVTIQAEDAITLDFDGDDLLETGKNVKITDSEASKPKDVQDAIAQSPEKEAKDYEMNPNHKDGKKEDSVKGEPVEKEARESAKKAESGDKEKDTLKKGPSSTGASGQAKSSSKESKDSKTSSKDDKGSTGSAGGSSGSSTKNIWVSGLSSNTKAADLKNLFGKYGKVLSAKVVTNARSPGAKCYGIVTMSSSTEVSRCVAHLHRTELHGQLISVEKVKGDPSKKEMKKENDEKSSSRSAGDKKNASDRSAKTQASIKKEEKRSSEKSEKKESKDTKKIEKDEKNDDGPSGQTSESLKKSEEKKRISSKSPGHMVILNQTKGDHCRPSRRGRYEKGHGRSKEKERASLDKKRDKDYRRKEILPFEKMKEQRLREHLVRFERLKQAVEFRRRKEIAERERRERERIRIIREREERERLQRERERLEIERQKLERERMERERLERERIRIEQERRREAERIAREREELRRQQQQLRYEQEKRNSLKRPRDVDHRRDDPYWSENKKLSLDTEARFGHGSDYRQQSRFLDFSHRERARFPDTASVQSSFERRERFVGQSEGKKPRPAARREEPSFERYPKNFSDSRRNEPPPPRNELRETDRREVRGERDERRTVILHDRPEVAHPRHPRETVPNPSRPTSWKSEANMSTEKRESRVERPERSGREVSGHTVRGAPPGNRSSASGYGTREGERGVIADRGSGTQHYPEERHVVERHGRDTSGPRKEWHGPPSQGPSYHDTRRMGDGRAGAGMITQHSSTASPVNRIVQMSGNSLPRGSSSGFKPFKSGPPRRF
UniProt Q8R0J8: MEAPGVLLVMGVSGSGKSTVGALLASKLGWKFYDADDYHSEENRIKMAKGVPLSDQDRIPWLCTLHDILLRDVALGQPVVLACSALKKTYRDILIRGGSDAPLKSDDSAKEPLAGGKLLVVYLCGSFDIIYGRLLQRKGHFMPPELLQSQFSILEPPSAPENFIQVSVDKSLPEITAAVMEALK
UniProt Q8K0T0: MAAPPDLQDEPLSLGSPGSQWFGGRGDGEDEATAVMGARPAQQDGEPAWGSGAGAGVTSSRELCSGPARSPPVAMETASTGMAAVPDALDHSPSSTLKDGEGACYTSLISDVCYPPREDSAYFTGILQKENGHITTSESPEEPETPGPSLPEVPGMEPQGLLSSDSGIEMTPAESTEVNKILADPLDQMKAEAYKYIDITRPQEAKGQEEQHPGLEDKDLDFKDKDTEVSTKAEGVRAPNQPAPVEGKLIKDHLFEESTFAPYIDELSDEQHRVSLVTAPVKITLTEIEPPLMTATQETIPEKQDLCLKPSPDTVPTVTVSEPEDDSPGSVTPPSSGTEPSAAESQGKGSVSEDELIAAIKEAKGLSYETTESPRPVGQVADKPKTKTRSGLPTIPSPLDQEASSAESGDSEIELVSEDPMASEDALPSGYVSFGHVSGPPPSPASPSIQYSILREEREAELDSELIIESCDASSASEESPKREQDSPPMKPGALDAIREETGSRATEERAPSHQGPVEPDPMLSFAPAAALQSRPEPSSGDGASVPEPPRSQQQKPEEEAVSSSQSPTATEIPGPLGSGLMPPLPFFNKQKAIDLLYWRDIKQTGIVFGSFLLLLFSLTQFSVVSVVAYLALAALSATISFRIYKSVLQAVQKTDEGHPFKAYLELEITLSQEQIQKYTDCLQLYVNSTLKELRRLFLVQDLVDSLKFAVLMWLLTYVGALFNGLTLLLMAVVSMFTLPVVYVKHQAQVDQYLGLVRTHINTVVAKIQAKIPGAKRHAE
UniProt Q8JZQ2: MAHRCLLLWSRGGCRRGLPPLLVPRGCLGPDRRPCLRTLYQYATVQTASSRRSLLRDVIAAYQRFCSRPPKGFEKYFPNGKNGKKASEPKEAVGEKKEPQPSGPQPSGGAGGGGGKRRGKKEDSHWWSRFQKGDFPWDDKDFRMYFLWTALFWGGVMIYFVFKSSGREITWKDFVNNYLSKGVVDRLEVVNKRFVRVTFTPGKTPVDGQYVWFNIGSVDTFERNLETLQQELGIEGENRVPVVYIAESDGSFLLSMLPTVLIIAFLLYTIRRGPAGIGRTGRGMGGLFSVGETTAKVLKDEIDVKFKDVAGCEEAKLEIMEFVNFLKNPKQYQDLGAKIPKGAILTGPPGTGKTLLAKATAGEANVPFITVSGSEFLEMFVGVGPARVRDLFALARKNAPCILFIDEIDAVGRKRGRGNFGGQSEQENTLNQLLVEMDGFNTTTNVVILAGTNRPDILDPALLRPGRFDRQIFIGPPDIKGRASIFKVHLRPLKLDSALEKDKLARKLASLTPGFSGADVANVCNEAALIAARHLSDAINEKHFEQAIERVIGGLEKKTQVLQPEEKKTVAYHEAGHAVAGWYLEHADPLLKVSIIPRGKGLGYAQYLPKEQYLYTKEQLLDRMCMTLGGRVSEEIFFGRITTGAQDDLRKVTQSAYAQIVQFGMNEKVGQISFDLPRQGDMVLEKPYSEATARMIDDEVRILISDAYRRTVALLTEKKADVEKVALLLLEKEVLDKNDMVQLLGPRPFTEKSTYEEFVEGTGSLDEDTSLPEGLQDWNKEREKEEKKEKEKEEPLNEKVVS
UniProt Q8K4Q8: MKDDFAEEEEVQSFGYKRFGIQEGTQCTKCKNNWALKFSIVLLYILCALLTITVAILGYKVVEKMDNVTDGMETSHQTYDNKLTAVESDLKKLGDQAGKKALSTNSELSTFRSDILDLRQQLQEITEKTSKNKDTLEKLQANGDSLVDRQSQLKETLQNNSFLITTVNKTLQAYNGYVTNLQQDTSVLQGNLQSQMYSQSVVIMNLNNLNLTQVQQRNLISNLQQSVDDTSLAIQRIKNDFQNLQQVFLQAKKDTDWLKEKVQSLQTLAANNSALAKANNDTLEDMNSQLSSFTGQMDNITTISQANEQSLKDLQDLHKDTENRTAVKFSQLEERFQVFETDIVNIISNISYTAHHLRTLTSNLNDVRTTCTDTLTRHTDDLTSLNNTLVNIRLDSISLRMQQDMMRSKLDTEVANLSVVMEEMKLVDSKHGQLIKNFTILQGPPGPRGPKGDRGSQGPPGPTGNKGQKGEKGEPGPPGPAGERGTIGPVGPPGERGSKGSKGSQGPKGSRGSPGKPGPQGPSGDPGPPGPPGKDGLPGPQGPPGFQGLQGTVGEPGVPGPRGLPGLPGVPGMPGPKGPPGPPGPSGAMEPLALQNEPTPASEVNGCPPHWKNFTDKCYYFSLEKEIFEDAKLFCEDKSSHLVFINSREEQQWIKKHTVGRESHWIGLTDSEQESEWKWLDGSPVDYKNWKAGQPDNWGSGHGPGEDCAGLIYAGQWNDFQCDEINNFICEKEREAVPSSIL

Compound: CN[C@@H]1C[C@H]2O[C@@](C)([C@@H]1OC)n1c3ccccc3c3c4c(c5c6ccccc6n2c5c31)C(=O)NC4 [staurosporine]
Assay: log2 fold change of pooled soluble protein (PISA), ligand vs vehicle (log2 ratio); higher = more thermally stabilized
Settings: ligand concentration: 20 uM; assay format: PISA pool 52.9/55.5/58.6 C

Target	log2 fold change of pooled soluble protein
UniProt Q8N7N5	0.0161
UniProt Q8QZR5	-0.0601
UniProt Q8K3W3	0.114
UniProt Q8VBW6	-0.147
UniProt Q8K182	0.127
UniProt Q8K268	-0.34
UniProt Q8K019	-0.0572
UniProt Q8VCM4	-0.168
UniProt Q8R5M8	0.178
UniProt Q8K5B2	0.116
UniProt Q8VCI0	-0.0331
UniProt Q8R0Y6	-0.0917
UniProt Q8VBW8	0.00358
UniProt Q8VCA8	0.12
UniProt Q8R2E9	-0.0578
UniProt Q8R149	-0.087
UniProt Q8K0R6	-0.391
UniProt Q8K0P3	-0.157
UniProt Q8JZQ9	-0.0402

A stretch from the list above:
Target	log2 fold change of pooled soluble protein
UniProt Q8VBW8	0.00358
UniProt Q8VCA8	0.12

(further entries)

Target	log2 fold change of pooled soluble protein
UniProt Q8VBT6	-0.253
UniProt Q8K1H1	0.129
UniProt Q8K1I3	0.0956
UniProt Q8K1J5	-0.00258
UniProt Q8CI59	0.0546
UniProt Q8CH25	-0.0306
UniProt Q8JZX4	-0.234
UniProt Q8R0J8	-0.467
UniProt Q8R326	-0.113
UniProt Q8K0T0	-0.0395
UniProt Q8CHW4	0.0495
UniProt Q8CIH9	-0.0468
UniProt Q8R3L2	0.0439
UniProt Q8JZQ2	-0.0731
UniProt Q8CHT0	-0.0748
UniProt Q8JZZ7	-0.248
UniProt Q8K4Q8	-0.00792
UniProt Q8K0U4	-0.37
